Results reported in patent US20060008849A1, “Methods for measuring chloride channel conductivity” (priority 2004, published 2006).
For at least one compound, name, drawing or mass did not settle the structure.

System: defective CFTR channel (CRL-1918 cells)
Assay: Sandell-Kolthoff (SK) assay, CRL-1918 cells with a defective CFTR channel
Type: cell-based
Conditions: up to a concentration of 100 μM

C=C[C@@]1(C)CC(=O)[C@]2(O)[C@@]3(C)[C@@H](O)CCC(C)(C)[C@@H]3[C@H](O)[C@H](OC(C)=O)[C@@]2(C)O1 [Forskolin]
activation of chloride channel conductivity: did not activate
